From the supplement of paper PMC3334620
In all, about 33,000 sequences were measured (“E-score (-0.5 to 0.5)”: median about -0.0059, highest 2% from about 0.26 on). Some of the results follow.

Each sequence was assayed against T1, Cin5 (UniProt P40917) (assay: PBM E-score (8-mer binding enrichment) (E-score (-0.5 to 0.5)); higher = stronger / more preferred TF binding). Conditions: protein concentration: 100 nM; construct: GST-full length.
T1 sequence: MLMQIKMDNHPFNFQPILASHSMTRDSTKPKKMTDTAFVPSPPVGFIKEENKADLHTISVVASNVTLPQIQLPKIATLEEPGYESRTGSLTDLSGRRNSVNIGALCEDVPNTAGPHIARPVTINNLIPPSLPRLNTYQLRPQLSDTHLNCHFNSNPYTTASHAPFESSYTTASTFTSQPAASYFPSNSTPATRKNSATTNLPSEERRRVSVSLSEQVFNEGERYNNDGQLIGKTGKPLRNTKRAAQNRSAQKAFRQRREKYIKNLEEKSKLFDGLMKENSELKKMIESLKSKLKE
Method in brief: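 Yeast transcription factors, full-length or as DNA-binding domains, were expressed with a GST tag using PURExpress in vitro transcription/translation. At about 100-200 nM they were applied to universal all-10-mer Agilent arrays, double-stranded by primer extension on fresh or once-stripped slides. Fluorescent anti-GST detected bound protein, and masliner normalised the scans. E-scores for ungapped eight-base words, pooled with reverse complements, came from the Universal PBM Analysis Suite.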

Compared with GGTAGTAA, AAGGTCGA is higher in “PBM E-score” value: 0.0106 for the first, 0.146 for the second.

Going from CTATGTAC to GAGACGGC, the “PBM E-score” value falls from 0.117 to -0.037.

Compared with CGGCACCA, AACTAATC is higher in “PBM E-score” value: -0.14 for the first, 0.233 for the second.

Going from GATTAAGA to AATACCAA, the “PBM E-score” value rises from 0.104 to 0.142.

First: GGATCAGA
Second: AGGAAAAT
The “PBM E-score” value of the first is lower: -0.042 for the first, 0.113 for the second.

Going from ATTACCAC to AATATATC, the “PBM E-score” value rises from 0.151 to 0.156.

First: GAAGCTTA
Second: AACTGACA
The “PBM E-score” value of the first is higher: 0.171 for the first, 0.0152 for the second.

Compared with GAACGGTC, TCTTTTCA is higher in “PBM E-score” value: -0.15 for the first, 0.0867 for the second.

Going from AAGCCATA to ACGCTCCC, the “PBM E-score” value falls from 0.00622 to -0.199.

Going from ACCGGAGT to GGCTTTAC, the “PBM E-score” value rises from -0.0595 to 0.00035.

Compared with AAATTGCG, AATAGACA is lower in “PBM E-score” value: 0.0806 for the first, -0.0233 for the second.

Going from AGGAGAAA to CTCTATGA, the “PBM E-score” value rises from -0.085 to -0.0648.

Compared with GACCACTA, GTGTACAA is lower in “PBM E-score” value: 0.171 for the first, 0.0823 for the second.

First: ATCAGTCA
Second: ATGAACTC
The “PBM E-score” value of the first is higher: 0.122 for the first, -0.0112 for the second.

First: CTCTTAGC
Second: GAATAACA
The “PBM E-score” value of the first is lower: -0.0546 for the first, 0.26 for the second.

Compared with AGGTTTGG, ACAAGTCC is lower in “PBM E-score” value: -0.0675 for the first, -0.144 for the second.

Going from ATCTAGAT to CAGTGCCA, the “PBM E-score” value falls from -0.0604 to -0.262.

First: GCCCTTAA
Second: GAAGGGTC
The “PBM E-score” value of the first is higher: -0.0839 for the first, -0.259 for the second.

Going from AGCGGCGC to CGACATCA, the “PBM E-score” value rises from -0.253 to 0.137.

Compared with GGGAGCCA, AGATAGTA is higher in “PBM E-score” value: -0.242 for the first, 0.213 for the second.

Going from GAACTACA to GTGATCCA, the “PBM E-score” value falls from 0.021 to -0.115.

First: AGACATAT
Second: CACTCGTC
The “PBM E-score” value of the first is higher: 0.0819 for the first, -0.0573 for the second.

First: AAAGCCGG
Second: TATCGCCA
The “PBM E-score” value of the first is lower: 0.0406 for the first, 0.132 for the second.

Compared with CATCACAA, CCCGACGG is lower in “PBM E-score” value: 0.123 for the first, -0.0846 for the second.

Going from ATAAGTTC to TATCGACA, the “PBM E-score” value falls from 0.227 to 0.112.

Going from ACAAGTCT to CTAAGGGA, the “PBM E-score” value rises from -0.0633 to -0.0345.

Compared with TACGTGAA, AATGCCTG is lower in “PBM E-score” value: 0.0132 for the first, -0.0859 for the second.

First: AGCGGTCC
Second: CTACTCAG
The “PBM E-score” value of the first is higher: -0.0708 for the first, -0.0922 for the second.

First: GCGGCCTA
Second: CATGCCAC
The “PBM E-score” value of the first is lower: -0.155 for the first, 0.0211 for the second.

Compared with AACAAGAG, CTTTCACA is higher in “PBM E-score” value: 0.0102 for the first, 0.0544 for the second.

Compared with AAAATTAA, CAGCACGA is lower in “PBM E-score” value: 0.105 for the first, 0.00097 for the second.

Compared with GAACGGCA, GCCGCTAC is lower in “PBM E-score” value: 0.048 for the first, -0.0553 for the second.

Compared with AGTATGTG, CACGTAAC is lower in “PBM E-score” value: 0.14 for the first, 0.0354 for the second.

First: GGGATTTA
Second: ATGAGCTA
The “PBM E-score” value of the first is lower: -0.0186 for the first, 0.154 for the second.

Compared with AAGCTGTG, ACCATCAT is higher in “PBM E-score” value: 0.07 for the first, 0.0905 for the second.

First: GTTAAATA
Second: TAAGTCTA
The “PBM E-score” value of the first is higher: 0.102 for the first, -0.11 for the second.

Going from GCACTGAA to ATCAGCTC, the “PBM E-score” value rises from -0.0379 to 0.103.

Compared with ATGTAGTA, CGGCCCCC is lower in “PBM E-score” value: 0.165 for the first, -0.408 for the second.

Going from CTTTAGGA to TGTTGAAA, the “PBM E-score” value rises from -0.062 to 0.216.

First: CTAACCCA
Second: TGTGAGAA
The “PBM E-score” value of the first is lower: -0.0281 for the first, 0.171 for the second.

Compared with GAGAGTCA, TCCACCCA is higher in “PBM E-score” value: -0.0414 for the first, -0.012 for the second.

Going from ACGGGATC to AATTGTGA, the “PBM E-score” value rises from -0.0232 to 0.0921.

First: CGGAGTTC
Second: AGTCCCAA
The “PBM E-score” value of the first is higher: 0.0362 for the first, -0.00919 for the second.

Compared with AACATTCC, CGATTCCA is lower in “PBM E-score” value: 0.0599 for the first, -0.0744 for the second.

Compared with GGCCGCCC, GGTTAACC is higher in “PBM E-score” value: -0.292 for the first, -0.121 for the second.

Going from AAGCGTCA to AACCTTTG, the “PBM E-score” value falls from -0.033 to -0.127.

Compared with ATGAAACC, AGGTTACC is lower in “PBM E-score” value: 0.113 for the first, 0.0613 for the second.

First: CGAGGTTC
Second: AATCCTAC
The “PBM E-score” value of the first is higher: 0.00352 for the first, -0.167 for the second.

Going from AGTCCAGC to CATCAAGC, the “PBM E-score” value rises from -0.285 to 0.0431.

Compared with ATTCGGCA, CCATAACA is higher in “PBM E-score” value: -0.0104 for the first, 0.102 for the second.

Compared with AGTCTTAA, ATTTCTAA is higher in “PBM E-score” value: -0.13 for the first, 0.0224 for the second.

Going from CCCAGAAC to AGCGCGAC, the “PBM E-score” value rises from -0.0388 to 0.00359.

Going from CTAGCTAA to ACCGCTCG, the “PBM E-score” value falls from 0.0272 to -0.0731.

Compared with GTTGAGTA, ATTGGGTC is higher in “PBM E-score” value: 0.0846 for the first, 0.13 for the second.

Going from CGAGTCAC to CCGCGAGA, the “PBM E-score” value rises from -0.192 to -0.167.

Going from GAGCGCAA to TCGTATCA, the “PBM E-score” value rises from -0.111 to 0.222.

Compared with GCGGGTTA, ACAGGCGC is lower in “PBM E-score” value: 0.0782 for the first, -0.26 for the second.

Going from AGCAGAAG to GAAGGATA, the “PBM E-score” value rises from -0.0132 to 0.0101.

Going from AAATTATC to CGTTTGAC, the “PBM E-score” value falls from 0.278 to -0.0898.

First: GTGTAGGA
Second: AGATTGAC
The “PBM E-score” value of the first is lower: -0.0437 for the first, 0.0942 for the second.

Compared with GACGTAAC, ATCCTTTA is lower in “PBM E-score” value: 0.186 for the first, -0.0507 for the second.

Going from ATTTATGA to GTGTATGA, the “PBM E-score” value falls from 0.153 to 0.0344.

Going from ATGATCGG to ACGGTTAA, the “PBM E-score” value falls from 0.0758 to -0.00571.

First: AGAGGTAT
Second: CACGCGAA
The “PBM E-score” value of the first is higher: 0.176 for the first, -0.0826 for the second.

Going from CACAAGTG to AATCTGCA, the “PBM E-score” value rises from -0.271 to 0.0353.

First: CGCTCCGC
Second: CCAGCACA
The “PBM E-score” value of the first is lower: -0.162 for the first, -0.0863 for the second.

Compared with GTAGTGAA, TAGGCTAA is lower in “PBM E-score” value: 0.0138 for the first, -0.102 for the second.

First: GAACAAAA
Second: CACTATCA
The “PBM E-score” value of the first is higher: 0.278 for the first, 0.0524 for the second.

Going from TCTTTGAA to CCCACATA, the “PBM E-score” value rises from -0.103 to 0.0598.

First: ATTTCTAG
Second: ACCCAGGA
The “PBM E-score” value of the first is higher: 0.0527 for the first, -0.18 for the second.

Compared with CAGTTCAA, AACCAAAA is higher in “PBM E-score” value: 0.042 for the first, 0.204 for the second.

Compared with CATCAGTC, ACCTAGGC is lower in “PBM E-score” value: -0.0112 for the first, -0.123 for the second.

Compared with ACCCCAAC, ACGCAGTG is lower in “PBM E-score” value: 0.145 for the first, -0.238 for the second.

First: ACGTGGAT
Second: CCGAATAG
The “PBM E-score” value of the first is higher: 0.133 for the first, -0.0268 for the second.

Going from ACAAAGAC to GCTGTGTA, the “PBM E-score” value falls from 0.0392 to -0.0209.

Going from CTCTAAGC to CATAGGGA, the “PBM E-score” value falls from 0.0569 to -0.0595.

Compared with CCCCCTCA, ATGCGAGC is higher in “PBM E-score” value: -0.385 for the first, 0.0464 for the second.

First: CCACACTC
Second: ACTCTGCT
The “PBM E-score” value of the first is higher: -0.0973 for the first, -0.108 for the second.

Compared with GCACGTAC, ACACTTTC is higher in “PBM E-score” value: -0.0532 for the first, 0.154 for the second.

Compared with ATACAAAA, ATATATAA is higher in “PBM E-score” value: 0.28 for the first, 0.335 for the second.

Going from CCTTTTAG to AAATTGAC, the “PBM E-score” value rises from -0.205 to 0.0984.

First: CCCGTATA
Second: ATGTCTCA
The “PBM E-score” value of the first is lower: -0.0229 for the first, 0.0216 for the second.

Going from ACTGTGTA to ATATTTTG, the “PBM E-score” value falls from 0.0904 to 0.0818.

First: AGTTACTC
Second: ACGCTATA
The “PBM E-score” value of the first is higher: 0.0474 for the first, -0.101 for the second.

First: TTCCCGAA
Second: TCCTACGA
The “PBM E-score” value of the first is higher: 0.0909 for the first, -0.239 for the second.

Compared with AAGCTCTC, AGTGGGGA is higher in “PBM E-score” value: -0.204 for the first, -0.0745 for the second.
